PubChem BioAssay AID1224830, NIAID | 2016
Aim: 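Host factors that control LPS-induced TNF expression in human macrophages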 (primary screen). System: human THP-1 monocytic leukaemia cells, TNF dual-luciferase reporter clone, PMA-differentiated to macrophage-like cells. Knock-down reagent: siRNA pool against human genes, 50 nM. Timing: LPS for 4 h, given about 3 days after siRNA transfection. Conditions: bacterial LPS (TLR4 ligand), 10 ng/ml. Measured: 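TNF firefly reporter luminescence divided by renilla, normalised to the plate median, then turned into a robust z-score for each replicate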. Scale: TNF reporter robust z-score: higher = stronger TNF reporter response to LPS. Rule for the call: 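a well is active when its z-score exceeds 2.8 or falls below -1.5; control wells carry no call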.
The deposit covers about 18,000 reagents; below is an unselected part. Over the whole deposit, about 2,900 (16%) got an active call. 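Calls are made per well; low scores hint the gene aids the LPS response, high scores that it dampens it.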 Entries without a mark were called inactive. Repeated entries: four replicate wells of each siRNA pool.

A3GALT2 showed TNF reporter robust z-score -0.08.
With knock-down of A3GALT2, the screen gave TNF reporter robust z-score 0.68.
With knock-down of A3GALT2, the screen gave TNF reporter robust z-score 0.44.
A3GALT2 showed TNF reporter robust z-score 0.93.
For PICALM, the entry reads TNF reporter robust z-score 0.49.
With knock-down of PICALM, the screen gave TNF reporter robust z-score 0.48.
For PICALM, the values are TNF reporter robust z-score 0.79.
DDX19A showed TNF reporter robust z-score 1.08.
With knock-down of DDX19A, the screen gave TNF reporter robust z-score -0.16.
DDX19A showed TNF reporter robust z-score -0.43.
After knock-down of DDX19A, the screen gave TNF reporter robust z-score 0.01.
Depletion of ACKR2 came out at: TNF reporter robust z-score 0.15.
Knock-down of ACKR2 gave: TNF reporter robust z-score 0.02.
ACKR2 scored TNF reporter robust z-score -0.17.
ACKR2 showed TNF reporter robust z-score 0.5.
For ZNF781, the entry reads TNF reporter robust z-score 1.27.
After knock-down of ZNF781 the results were TNF reporter robust z-score 0.63.
After knock-down of ZNF781, the record shows TNF reporter robust z-score 0.82.
ZNF781 gave TNF reporter robust z-score 0.75.
With knock-down of CYC1, the record shows TNF reporter robust z-score -0.53.
Silencing of CYC1 gave: TNF reporter robust z-score 0.56.
With knock-down of CYC1 the results were TNF reporter robust z-score 0.
Silencing of CYC1 gave: TNF reporter robust z-score -0.74.
Against NOX4, the entry reads TNF reporter robust z-score 1.7.
After knock-down of NOX4 the results were TNF reporter robust z-score 2.18.
For NOX4 the deposit lists TNF reporter robust z-score 0.79.
Depletion of NOX4 came out at: TNF reporter robust z-score 2.31.
For MARF1 the deposit lists TNF reporter robust z-score 2.54.
Against MARF1, the values are TNF reporter robust z-score 1.86.
Silencing of MARF1 came out at: TNF reporter robust z-score 1.7.
After knock-down of MARF1 the results were TNF reporter robust z-score -0.55.
Silencing of CDRT4 resulted in: TNF reporter robust z-score 1.54.
CDRT4 gave TNF reporter robust z-score 2.01.
For CDRT4 the deposit lists TNF reporter robust z-score 0.83.
After knock-down of CDRT4 the results were TNF reporter robust z-score -0.53.
For ZNF92, the values are TNF reporter robust z-score 0.09.
ZNF92 gave TNF reporter robust z-score 2.38.
ZNF92 gave TNF reporter robust z-score -0.46.
Knock-down of ZNF92 gave: TNF reporter robust z-score -0.29.
For CIAO1, the entry reads TNF reporter robust z-score 0.55.
After knock-down of CIAO1, the screen gave TNF reporter robust z-score 0.82.
Depletion of CIAO1 came out at: TNF reporter robust z-score 0.28.
For CIAO1, the values are TNF reporter robust z-score 0.81.
LBH showed TNF reporter robust z-score 1.59.
For LBH, the entry reads TNF reporter robust z-score -0.05.
Depletion of LBH gave: TNF reporter robust z-score 0.42.
Against LBH the deposit lists TNF reporter robust z-score 0.72.
